18 compounds from the supplement of paper PMC10735217 can be followed below.

The subject of this assay is HEK293A TEAD-LUC reporter. Nature of the assay: TEAD-luciferase reporter activity (YAP activation), robust Z score vs plate; higher = stronger YAP/TEAD activation. Conditions: 24 h.

Structures can show the parent of a compound that is named as a salt. Some of the results follow. Repeats in this data set agree poorly, so a single value says little.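 In a drug-repurposing library screen, luminescence reads luciferase driven by eight TEAD-binding elements, stably integrated into human kidney-derived cells. Compounds scoring over five robust Z scores above the plate mean are called hits.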

For the compound `O=C(NCc1cccnc1)c1ccc2nccn2c1`, the TEAD-luciferase reporter activity is inactive: -2.44 (compound concentration: 200 nM) and inactive: 0.0253 (compound concentration: 10 uM).

With `O=c1[nH]c(=O)n(C2CC(O)C(CO)O2)cc1Br` (centres undefined) [5-bromodeoxyuridine], the TEAD-luciferase reporter activity reads like this: (compound concentration: 200 nM) inactive: -0.799; (compound concentration: 2 uM) inactive: 0.259; (compound concentration: 10 uM) inactive: -0.49.

On to `O=C(N[C@H](CO)[C@H](O)c1ccc([N+](=O)[O-])cc1)C(Cl)Cl` [Chloramphenicol], for which the TEAD-luciferase reporter activity (compound concentration: 2 uM) is inactive: 0.349.

On to `O=C(N[C@H](CO)[C@H](O)c1ccc([N+](=O)[O-])cc1)C(Cl)Cl`, for which the TEAD-luciferase reporter activity reads like this: (compound concentration: 200 nM) inactive: 3.99; (compound concentration: 10 uM) inactive: 0.795.

As for `CC(C)=CCOc1cc(NC(=S)c2ccccn2)ccc1Cl`, the TEAD-luciferase reporter activity was inactive: -0.625 (compound concentration: 200 nM), inactive: -0.0606 (compound concentration: 2 uM) and inactive: 0.293 (compound concentration: 10 uM).

Take `O=C(/C=C/c1ccc2ccc(C(F)(F)F)cc2n1)c1ccncc1`: the TEAD-luciferase reporter activity is inactive: 0.591 (compound concentration: 200 nM), inactive: 0.0891 (compound concentration: 2 uM) and inactive: 0.0398 (compound concentration: 10 uM).

As to `CNC(=O)c1ccc(C)c(-n2c(C)cc(OCc3ccc(F)cc3F)c(Br)c2=O)c1`, the TEAD-luciferase reporter activity is inactive: -0.9 (compound concentration: 200 nM), inactive: -1.68 (compound concentration: 2 uM) and inactive: -0.62 (compound concentration: 10 uM).

As for `CNS(=O)(=O)Nc1nccc(Cc2c(C)c3ccc(Oc4ncccn4)cc3oc2=O)c1F`, the TEAD-luciferase reporter activity is, setting by setting: (compound concentration: 200 nM) inactive: 0.661; (compound concentration: 2 uM) inactive: 1.18; (compound concentration: 10 uM) inactive: 1.85.

As to `Cc1cc(C)cc(COCCOCn2cc(C)c(=O)[nH]c2=O)c1`, the TEAD-luciferase reporter activity is inactive: -2.03 (compound concentration: 200 nM), inactive: -1.07 (compound concentration: 2 uM) and inactive: -1.62 (compound concentration: 10 uM).

Consider `Cn1cnc2c(F)c(Nc3ccc(Br)cc3F)c(C(=O)NOCCO)cc21` [binimetinib], for which the TEAD-luciferase reporter activity is, setting by setting: (compound concentration: 200 nM) inactive: -0.0352; (compound concentration: 2 uM) inactive: 1.25; (compound concentration: 10 uM) inactive: -0.711.

Consider `CC(=O)Oc1ccccc1C(=O)O[C@H](C)[C@H](N)C(=O)O`, for which the TEAD-luciferase reporter activity was inactive: -1.55 (compound concentration: 200 nM), inactive: -1.59 (compound concentration: 2 uM) and inactive: -1.8 (compound concentration: 10 uM).

As for `Cn1ncnc1COc1nn2c(-c3cc(F)ccc3F)nnc2cc1C(C)(C)C`, the TEAD-luciferase reporter activity (compound concentration: 200 nM) was inactive: 1.39, the TEAD-luciferase reporter activity (compound concentration: 2 uM) is inactive: 0.664 and the TEAD-luciferase reporter activity (compound concentration: 10 uM) is inactive: 1.56.

In the case of `Cc1ccc(S(=O)(=O)Nc2nc3ccccc3nc2Cl)cc1`, the TEAD-luciferase reporter activity reads like this: (compound concentration: 200 nM) inactive: -0.599; (compound concentration: 2 uM) inactive: -0.201; (compound concentration: 10 uM) inactive: 1.15.

With `CC1CC(OC(=O)C(O)c2ccccc2)CC(C)(C)C1` (centres undefined) [cyclandelate], the TEAD-luciferase reporter activity (compound concentration: 2 uM) is inactive: -1.73.

Consider `CC1CC(OC(=O)C(O)c2ccccc2)CC(C)(C)C1` (centres undefined) [cyclandelate, Elan], for which the TEAD-luciferase reporter activity was inactive: -2.77 (compound concentration: 200 nM) and inactive: 1.95 (compound concentration: 10 uM).

Take `CC(C)[C@H](N)C(=O)OC[C@H]1O[C@@H](n2cc(F)c(=O)[nH]c2=O)[C@H](O)[C@@H]1O`: the TEAD-luciferase reporter activity is inactive: -2.77 (compound concentration: 200 nM), inactive: -1.2 (compound concentration: 2 uM) and inactive: -0.852 (compound concentration: 10 uM).

As to `CN[C@H](CC(C)C)C(=O)N[C@H]1C(=O)N[C@@H](CC(N)=O)C(=O)N[C@H]2C(=O)N[C@H]3C(=O)N[C@H](C(=O)N[C@H](C(=O)O)c4cc(O)cc(O)c4-c4cc3ccc4O)[C@H](O)c3ccc(c(Cl)c3)Oc3cc2cc(c3O[C@@H]2O[C@H](CO)[C@@H](O)[C@H](O)[C@H]2O[C@H]2C[C@](C)(N)[C@H](O)[C@H](C)O2)Oc2ccc(cc2Cl)[C@H]1O` [Vancomycin hydrochloride], the TEAD-luciferase reporter activity (compound concentration: 2 uM) was inactive: -0.775.

Regarding `CN[C@H](CC(C)C)C(=O)N[C@H]1C(=O)N[C@@H](CC(N)=O)C(=O)N[C@H]2C(=O)N[C@H]3C(=O)N[C@H](C(=O)N[C@H](C(=O)O)c4cc(O)cc(O)c4-c4cc3ccc4O)[C@H](O)c3ccc(c(Cl)c3)Oc3cc2cc(c3O[C@@H]2O[C@H](CO)[C@@H](O)[C@H](O)[C@H]2O[C@H]2C[C@](C)(N)[C@H](O)[C@H](C)O2)Oc2ccc(cc2Cl)[C@H]1O` [Vancomycin], the TEAD-luciferase reporter activity by setting is: (compound concentration: 200 nM) inactive: 1.02; (compound concentration: 10 uM) inactive: 0.248.
